Values from PubChem BioAssay AID1259284 (Sanger Institute, 2017).

Test: 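siRNA screen across the kinome seeking partners for BYL719, cetuximab or trametinib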 (primary screen)
Cells: SW48 human colorectal cancer cells
Knock-down reagent: siRNA pool against human genes
Treatment: anchor drug BYL719 at 1 µM, cetuximab at 5 µg/ml or trametinib at 10 nM, or DMSO vehicle alone
Detection: 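Cell viability relative to non-targeting pool wells, replicate mean, with robust z-scores and drug synergy scores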
Direction: robust z-score, no drug: higher = more cells survive knock-down
Active means: 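a knock-down is essential if viability without drug gives a robust z-score under -3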
Meaning of the calls: active = essential without drug; inactive = no change without drug
In all, the deposit lists 794 reagents; below is a part drawn at random. Over the whole deposit, 16 (2%) are marked active. 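Calls concern knock-down without drug only; drug synergy was judged apart, with scores above 0.15 taken as synergy.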 Not all columns of the deposit are shown. Reagent sequences are not shown. Not stated in the record: the amount of reagent, the time to read-out.

HK1 — robust z-score, no drug = 0.426; outcome = inactive
CDK17 — robust z-score, no drug = 0.426; outcome = inactive
ROR1 — robust z-score, no drug = 0.426; outcome = inactive
TAB1 — robust z-score, no drug = 0.426; outcome = inactive
MAP4K3 — robust z-score, no drug = -1.93; outcome = inactive
ITPKB — robust z-score, no drug = 0.426; outcome = inactive
RPS6KA6 — robust z-score, no drug = 0.426; outcome = inactive
CDKN1C — robust z-score, no drug = 0.426; outcome = inactive
NUP62 — robust z-score, no drug = 0.426; outcome = inactive

Taken from above.
MAP4K3, outcome → inactive
Under “outcome”, HK1 shows inactive

Continued:
CDK16 — robust z-score, no drug = -0.578; outcome = inactive
MAP3K2 — robust z-score, no drug = 0.426; outcome = inactive
TYRO3 — robust z-score, no drug = 0.426; outcome = inactive
STAG2 — robust z-score, no drug = 0.426; outcome = inactive
CDK9 — robust z-score, no drug = 0.426; outcome = inactive
MAPKAPK2 — robust z-score, no drug = 0.426; outcome = inactive
NEK3 — robust z-score, no drug = -0.0327; outcome = inactive
LRRK2 — robust z-score, no drug = 0.426; outcome = inactive
TRPM6 — robust z-score, no drug = 0.426; outcome = inactive
MAPKAPK5 — robust z-score, no drug = 0.426; outcome = inactive
ULK4 — robust z-score, no drug = 0.426; outcome = inactive
GNE — robust z-score, no drug = 0.426; outcome = inactive
PDPK1 — robust z-score, no drug = 0.426; outcome = inactive
ARAF — robust z-score, no drug = 0.426; outcome = inactive
PKIB — robust z-score, no drug = -0.115; outcome = inactive
RIOK1 — robust z-score, no drug = -1.3; outcome = inactive
KDR — robust z-score, no drug = 0.426; outcome = inactive
MAP4K5 — robust z-score, no drug = -3.18; outcome = active
WIPF1 — robust z-score, no drug = -1.1; outcome = inactive
